Construct, isoform or probe ends are uncertain for at least one entry. Where cells or extracts were used, other partners may take part.

The chains behind the UniProt entries cited, without tags or fusion partners.
UniProt Q13950, whole entry S118D: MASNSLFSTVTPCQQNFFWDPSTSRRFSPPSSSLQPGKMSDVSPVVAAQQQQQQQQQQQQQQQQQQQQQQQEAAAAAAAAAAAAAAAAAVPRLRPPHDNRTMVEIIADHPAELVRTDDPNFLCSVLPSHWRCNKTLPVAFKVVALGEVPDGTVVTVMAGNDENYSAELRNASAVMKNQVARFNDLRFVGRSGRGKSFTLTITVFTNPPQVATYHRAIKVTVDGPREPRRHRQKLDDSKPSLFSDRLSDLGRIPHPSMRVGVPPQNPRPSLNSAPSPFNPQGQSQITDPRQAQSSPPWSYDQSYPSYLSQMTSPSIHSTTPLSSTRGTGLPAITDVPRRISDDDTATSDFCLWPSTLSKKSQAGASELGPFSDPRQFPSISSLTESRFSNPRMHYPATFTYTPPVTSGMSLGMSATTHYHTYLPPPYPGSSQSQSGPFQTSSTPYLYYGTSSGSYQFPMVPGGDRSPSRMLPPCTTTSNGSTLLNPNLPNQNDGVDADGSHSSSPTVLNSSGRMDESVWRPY
UniProt Q13950, whole entry: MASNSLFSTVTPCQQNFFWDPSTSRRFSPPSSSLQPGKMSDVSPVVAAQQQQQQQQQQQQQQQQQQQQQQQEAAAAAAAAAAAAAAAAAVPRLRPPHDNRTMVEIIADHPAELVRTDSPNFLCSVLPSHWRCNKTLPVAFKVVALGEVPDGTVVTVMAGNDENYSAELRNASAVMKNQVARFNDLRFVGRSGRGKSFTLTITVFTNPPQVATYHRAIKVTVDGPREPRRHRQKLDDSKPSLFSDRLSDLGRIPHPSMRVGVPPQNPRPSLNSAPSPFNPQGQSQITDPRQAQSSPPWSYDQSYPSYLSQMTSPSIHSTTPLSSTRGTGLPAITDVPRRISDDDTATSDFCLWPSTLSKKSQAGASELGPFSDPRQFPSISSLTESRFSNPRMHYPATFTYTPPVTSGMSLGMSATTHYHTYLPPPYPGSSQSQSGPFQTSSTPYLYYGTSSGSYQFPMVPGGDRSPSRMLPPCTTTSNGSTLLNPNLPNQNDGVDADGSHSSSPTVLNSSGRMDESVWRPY

Data set [1] deals with RUNX2-S118D (UniProt Q13950). Put plainly: EMSA. As to conditions: no drug stated, enhanced binding; EMSA: 5 ug nuclear extract, 10 pmol probe, 37 C, 30 min, 1x binding buffer printed as 200 mM HEPES pH 7.4, 40 mM DTT, 4 mM EDTA pH 8.0, 50% glycerol; protein in a lysate after overexpression; residues 1-521; protein details: DsRed (pDsRed1-N1); label: 32P ([gamma-32P]). (A gel shift assay detects complexes by their altered migration in electrophoresis.)

Data set [2] concerns the target RUNX2-WT (UniProt Q13950). Nature of the data set: EMSA. The conditions noted are these: metformin 5 mM, 6 h (cells), enhanced binding; EMSA: 5 ug nuclear extract, 10 pmol probe, 37 C, 30 min, 1x binding buffer printed as 200 mM HEPES pH 7.4, 40 mM DTT, 4 mM EDTA pH 8.0, 50% glycerol; protein in a lysate after overexpression; residues 1-521; protein details: DsRed (pDsRed1-N1); label: 32P ([gamma-32P]).

As to “CGAGTATTGTGGTTAATACG (double strand) [Osteocalcin promoter RUNX2 consensus site at -140]”, the binding result in data set [1] and in data set [2] was “binds” in each case.

These data come from article PMC6037667.
